Data from paper PMC7819943, “Rice protein-binding microarrays: a tool to detect cis-acting elements near promoter regions in rice”.
This is one part of the list.

What follows are sequences tested against T1, OsSMF1 (Oryza sativa, UniProt Q6ZLB0 1-436) (assay: protein-binding microarray (RPBM); PBS, 2% BSA, 51.3 ng/ul salmon testes DNA, 50 uM zinc acetate, 200 nM TF, 25 C, 1 h; high values mean tight binding). Conditions: protein: recombinant; tags: N-terminal polyhistidine and DsRed monomer fusion (pET32a); chain copies: 2; label: CyDye5-dUTP incorporated in the synthesized complementary strand; 3' TTTTT single-stranded linker to array surface; dsDNA, one strand shown.
T1 sequence: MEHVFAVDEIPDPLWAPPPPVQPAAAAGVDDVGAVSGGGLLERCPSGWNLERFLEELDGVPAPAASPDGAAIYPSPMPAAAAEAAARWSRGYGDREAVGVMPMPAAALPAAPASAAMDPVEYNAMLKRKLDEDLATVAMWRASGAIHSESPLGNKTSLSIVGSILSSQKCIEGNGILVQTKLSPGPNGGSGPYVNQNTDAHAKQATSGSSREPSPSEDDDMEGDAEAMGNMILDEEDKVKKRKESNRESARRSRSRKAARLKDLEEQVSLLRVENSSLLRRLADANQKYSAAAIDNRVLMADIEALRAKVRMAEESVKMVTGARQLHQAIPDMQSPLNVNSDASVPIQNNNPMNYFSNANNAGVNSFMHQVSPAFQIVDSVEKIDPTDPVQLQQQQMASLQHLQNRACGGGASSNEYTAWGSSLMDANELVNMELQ
Procedure, shortened: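 Using Ni–NTA, transcription factors fused N-terminally to polyhistidine and DsRed were purified after expression in E. coli BL21-CodonPlus. These were incubated at 200 nM with a blocked, double-stranded custom Agilent array for 1 h at 25 °C in a buffer containing 50 µM zinc acetate, and the array was washed. The binding signal is per-feature fluorescence intensity (arbitrary units) on an Axon 4000B scanner.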

Row | Sequence | binding signal
1 | CCTTGACAAGTTTGTCCTCAATTTGATTTCAAGTCTAAAACGGAGTCACCTAGTGCAG | 30900 fluorescence intensity (a.u.)
2 | CCAAGCCTTTTCCCACACGATTAGCTGTTGCAATTCATTCCGGAGTCACCTAGTGCAG | 3520 fluorescence intensity (a.u.)
3 | TTTTCCTATCATTTGTTTTGCACACGCGTTCCTATACGATCGGAGTCACCTAGTGCAG | 4480 fluorescence intensity (a.u.)
4 | ATACACGTATGCAAAAGTTTGCATACGTGTATATAAAGTTCGGAGTCACCTAGTGCAG | 12600 fluorescence intensity (a.u.)
5 | TGCTCCTCTTCCTCGTCACCGCCGTCCTCCTCTTCCATCTCGGAGTCACCTAGTGCAG | 6460 fluorescence intensity (a.u.)
6 | TCCGCAGTCCGCACGAAGCACGACGCGACGACACGGATCACGGAGTCACCTAGTGCAG | 14200 fluorescence intensity (a.u.)
7 | ATCAGCCGCTTCTCCTCCTCCACGTCCATCGCCGCCGGCGCGGAGTCACCTAGTGCAG | 4220 fluorescence intensity (a.u.)
8 | AAATCGTTTAGAGTGACTGAATACTCAACAATGAAAGCTGCGGAGTCACCTAGTGCAG | 20300 fluorescence intensity (a.u.)
9 | GCTCCTGATTTCTAGCTTGCTGTTGACAAAATTAGCTGTTCGGAGTCACCTAGTGCAG | 3740 fluorescence intensity (a.u.)
10 | AATAAGTAAGGTGGTTTTAAAATTTGGGGAGAGCTAACAGCGGAGTCACCTAGTGCAG | 39100 fluorescence intensity (a.u.)
11 | TTCCAGGTGGGACCGACGCGCGCCACGTCAGCGTAGCGGGCGGAGTCACCTAGTGCAG | 27400 fluorescence intensity (a.u.)
12 | ATTAATTATCATATAACGGTGTTATGTGGAGTGTGATGATCGGAGTCACCTAGTGCAG | 3280 fluorescence intensity (a.u.)
13 | AAGTAGGCGTAGTTAAATCAAATGAGTGCTGTGCTGTCCACGGAGTCACCTAGTGCAG | 3400 fluorescence intensity (a.u.)
14 | CAATTATCCGCAACGTATGGCTAGCTCAACCCTACTGTAACGGAGTCACCTAGTGCAG | 3270 fluorescence intensity (a.u.)
15 | GGCGGTGCACGGCGGCGGCGGCGGTGGCGCTGGTGGGATGCGGAGTCACCTAGTGCAG | 3160 fluorescence intensity (a.u.)
16 | ACGTTTTGGCGGGAGTATCACGGGAGGGCCCACCTGTCATCGGAGTCACCTAGTGCAG | 30400 fluorescence intensity (a.u.)
17 | GTCGCCGCCCTCAACACGGTGTTCATCTACTGGATCTTCACGGAGTCACCTAGTGCAG | 4680 fluorescence intensity (a.u.)
18 | AATTATCATAAAACAACATATTTAAACCATGGTAACATAACGGAGTCACCTAGTGCAG | 6200 fluorescence intensity (a.u.)
19 | CCCTCCCATCATCAAGTCACCCACCAAGCGAAGCAAACCCCGGAGTCACCTAGTGCAG | 4280 fluorescence intensity (a.u.)
20 | TCACATCAGATGTTTGACTAGATGTTGAAAGGGGTTTTCGCGGAGTCACCTAGTGCAG | 3310 fluorescence intensity (a.u.)
21 | AAAATGACAATTCCTGTCTCATGATGCTTACATGTCCATGCGGAGTCACCTAGTGCAG | 4050 fluorescence intensity (a.u.)

Row | Sequence | binding signal
22 | AGGGGATAGATGGAAATCATGACGGGAGTGGCACGGTTCTCGGAGTCACCTAGTGCAG | 14500 fluorescence intensity (a.u.)
23 | TCCAATTTCATCCAACTCAGCTATAGCTTTCTTTGCACCTCGGAGTCACCTAGTGCAG | 4350 fluorescence intensity (a.u.)
24 | TCGGTTGGAGCAAGCGGCGGCGCAGACGTGGAAGCCCTTCCGGAGTCACCTAGTGCAG | 5460 fluorescence intensity (a.u.)
25 | CCACCGCCACGTTCCTCCTCACCTTTCACCCACCCACCACCGGAGTCACCTAGTGCAG | 4350 fluorescence intensity (a.u.)
26 | GAGTACATGTATGGACAGACACTGTATGAATGATGTATGTCGGAGTCACCTAGTGCAG | 3380 fluorescence intensity (a.u.)
27 | AGTTGATTCGGATCGTGTGCTCGTGATTTTGATCAACTTACGGAGTCACCTAGTGCAG | 19600 fluorescence intensity (a.u.)
28 | CTCAAGCAGCGGAAGCGCGGGGCCTCCGGCTCCACCTCCGCGGAGTCACCTAGTGCAG | 3240 fluorescence intensity (a.u.)
29 | AAGCTCATCTTGTTCCGTGAGCGGGTCTATCTATTAGAGCCGGAGTCACCTAGTGCAG | 3780 fluorescence intensity (a.u.)
30 | ACTTAACTCGTATAGGTAGAGAACCTGACCAGCTGAGCTCCGGAGTCACCTAGTGCAG | 3490 fluorescence intensity (a.u.)
31 | CACACTCTCACTGTCCACGCTTGTCTTGGCCGCTTGACTACGGAGTCACCTAGTGCAG | 3550 fluorescence intensity (a.u.)
32 | CGACCGACCGGACCGGACCCAACGCGCGCACCCAACTACCCGGAGTCACCTAGTGCAG | 3440 fluorescence intensity (a.u.)
33 | CATGCTAATGTGTACACACTATTTCATCCGTCATCACACCCGGAGTCACCTAGTGCAG | 3980 fluorescence intensity (a.u.)
34 | TCCGCGCACGACACGTGTCCAGTCACGCTTTGAACGCTAACGGAGTCACCTAGTGCAG | 11600 fluorescence intensity (a.u.)
35 | CGGTTTGTAACGGAATAGTTGATGTCAGCACGATATCGTACGGAGTCACCTAGTGCAG | 7210 fluorescence intensity (a.u.)
36 | CACACCCAGACGGCCGCCGTTAGCCACGCGTCCTCCCCTCCGGAGTCACCTAGTGCAG | 4290 fluorescence intensity (a.u.)
37 | TGACCCTCAACCGTAAAACCGGATAGGATGACTCCCCGAACGGAGTCACCTAGTGCAG | 3680 fluorescence intensity (a.u.)
38 | GTATCTCGATCCTGATCAATGCTCCACATCACCGAGAAGCCGGAGTCACCTAGTGCAG | 6090 fluorescence intensity (a.u.)
39 | CTCGAGTCGCCACCTGCCACGCCTCCGTCGCCGTCGCCGCCGGAGTCACCTAGTGCAG | 5230 fluorescence intensity (a.u.)
40 | TCCTCCTGTCCGTCCAAGCAATCCAAACTCTCTCTTCCCTCGGAGTCACCTAGTGCAG | 3910 fluorescence intensity (a.u.)
41 | CGAAGAGGTCGCTTTCTGTACCGTCTGGAAGACGTCATGTCGGAGTCACCTAGTGCAG | 4520 fluorescence intensity (a.u.)
42 | TTTTCAGCCTCGATCAGCTCTCCTGGGGTTGGTTGGTTGGCGGAGTCACCTAGTGCAG | 3600 fluorescence intensity (a.u.)

Reformatted with tabs: entries from further up.
Row	Sequence	binding signal
28	CTCAAGCAGCGGAAGCGCGGGGCCTCCGGCTCCACCTCCGCGGAGTCACCTAGTGCAG	3240 fluorescence intensity (a.u.)
33	CATGCTAATGTGTACACACTATTTCATCCGTCATCACACCCGGAGTCACCTAGTGCAG	3980 fluorescence intensity (a.u.)
